PubChem BioAssay AID652243 – Drosophila RNAi Screening Center | 2013
Assay: 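Fly regulators of androgen-dependent reporter output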 (primary screen). System: Drosophila S2R+ cells. Reagents: long dsRNA against Drosophila genes. Duration: 72 h (48 h, then 24 h hormone). Conditions: synthetic androgen R1881 at 10 nM for 24 h. Detection: 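Per-well raw luminescence of the androgen-driven firefly reporter and of the Renilla control, two replicates each, without normalisation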. Reading the numbers: firefly reporter light: higher = more light from androgen-responsive reporter; Renilla control light: higher = more constitutive control signal (cell number, transfection). Rule for the call: 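Hit when the log firefly-to-Renilla ratio dropped or increased by a fixed fold versus the mean of GFP or LacZ controls across duplicate plates; lowering cut given as 1.5 and as 3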. Meaning of the calls: active = hit: reporter lowered or raised; inactive = no hit.
The screen tested about 24,000 reagents; this is an unselected part of those with a known target gene and a result. Over the whole deposit, 246 (1%) were called active. 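Plates not normalised; calls are printed but the firefly/Renilla ratio behind them is not deposited; fold cut for lowering reported inconsistently.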 The raw values are shown without normalisation. Unmarked entries are inactive. Not stated in the record: the amount of reagent.

Neb-cGP [DRSC17991]
- firefly reporter light, replicate 1: 6.30e5
- firefly reporter light, replicate 2: 5.51e5
- Renilla control light, replicate 1: 5.20e6
- Renilla control light, replicate 2: 5.03e6

CG5810 [DRSC15880]
- firefly reporter light, replicate 1: 2.83e5
- firefly reporter light, replicate 2: 2.34e5
- Renilla control light, replicate 1: 3.29e6
- Renilla control light, replicate 2: 2.99e6

CG5810 [DRSC21921]
- firefly reporter light, replicate 1: 7.40e5
- firefly reporter light, replicate 2: 5.55e5
- Renilla control light, replicate 1: 1.61e6
- Renilla control light, replicate 2: 1.41e6

Cyt-c1 (Cytochrome c1) [DRSC10447]
- firefly reporter light, replicate 1: 9.61e5
- firefly reporter light, replicate 2: 7.57e5
- Renilla control light, replicate 1: 2.32e6
- Renilla control light, replicate 2: 1.72e6

Cyt-c1 (Cytochrome c1) [DRSC29221]
- firefly reporter light, replicate 1: 7.11e5
- firefly reporter light, replicate 2: 7.04e5
- Renilla control light, replicate 1: 1.24e6
- Renilla control light, replicate 2: 1.18e6

MED7 (Mediator complex subunit 7) [DRSC16059]
- firefly reporter light, replicate 1: 1.25e5
- firefly reporter light, replicate 2: 1.29e5
- Renilla control light, replicate 1: 2.68e6
- Renilla control light, replicate 2: 2.01e6

MED7 (Mediator complex subunit 7) [DRSC29232]
- firefly reporter light, replicate 1: 2.68e5
- firefly reporter light, replicate 2: 3.26e5
- Renilla control light, replicate 1: 7.44e5
- Renilla control light, replicate 2: 5.87e5

su(Hw) (suppressor of Hairy wing) [DRSC17074]
- firefly reporter light, replicate 1: 31022
- firefly reporter light, replicate 2: 8186
- Renilla control light, replicate 1: 2.76e5
- Renilla control light, replicate 2: 2.81e5

Not a retest: an excerpt of the list.
CG5810 [DRSC15880]
- firefly reporter light, replicate 1: 2.83e5
- firefly reporter light, replicate 2: 2.34e5
- Renilla control light, replicate 1: 3.29e6
- Renilla control light, replicate 2: 2.99e6

CG5810 [DRSC21921]
- firefly reporter light, replicate 1: 7.40e5
- firefly reporter light, replicate 2: 5.55e5
- Renilla control light, replicate 1: 1.61e6
- Renilla control light, replicate 2: 1.41e6

Further results follow.
CG34274 [DRSC38657]
- firefly reporter light, replicate 1: 9.58e5
- firefly reporter light, replicate 2: 7.02e5
- Renilla control light, replicate 1: 2.26e6
- Renilla control light, replicate 2: 2.49e6

CG13075 [DRSC09958]
- firefly reporter light, replicate 1: 2.02e5
- firefly reporter light, replicate 2: 1.69e5
- Renilla control light, replicate 1: 1.85e6
- Renilla control light, replicate 2: 1.93e6

CG13075 [DRSC28458]
- firefly reporter light, replicate 1: 1.57e5
- firefly reporter light, replicate 2: 3.74e5
- Renilla control light, replicate 1: 5.36e5
- Renilla control light, replicate 2: 7.35e5

CG14502 [DRSC06473]
- firefly reporter light, replicate 1: 9.16e5
- firefly reporter light, replicate 2: 1.22e6
- Renilla control light, replicate 1: 1.82e6
- Renilla control light, replicate 2: 1.61e6
